Measured values from PubChem BioAssay AID652054 (National Center for Advancing Translational Sciences (NCATS), 2013).
The campaign covered roughly 360,000 compounds. About 9,100 (2.5%) were called active. This list was built around the results that the source calls inconclusive (neither active nor inactive); the mix of calls is not that of the screen. Cut-off read from the data, not from the text of the source: active = max response below about -50%; inconclusive = no clear call, values can overlap the other calls; inactive = above that.

The chains behind the UniProt entries cited, without tags or fusion partners.
UniProt P35462, whole entry, looked up: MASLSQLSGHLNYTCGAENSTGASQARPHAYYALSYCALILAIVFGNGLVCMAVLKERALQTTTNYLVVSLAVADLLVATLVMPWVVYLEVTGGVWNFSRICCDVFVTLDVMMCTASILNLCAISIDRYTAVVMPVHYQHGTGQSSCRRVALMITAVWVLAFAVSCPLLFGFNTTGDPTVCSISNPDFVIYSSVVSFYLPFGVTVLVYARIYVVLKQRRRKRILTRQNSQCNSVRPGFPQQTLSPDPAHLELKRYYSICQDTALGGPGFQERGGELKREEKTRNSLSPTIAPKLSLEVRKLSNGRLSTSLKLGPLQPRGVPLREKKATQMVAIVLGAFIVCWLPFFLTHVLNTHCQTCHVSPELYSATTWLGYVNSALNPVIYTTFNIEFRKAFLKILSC

Biological target: D(3) dopamine receptor (Homo sapiens) (UniProt P35462)
Experiment: qHTS of D3 Dopamine Receptor Antagonist: qHTS
Conditions: D3R cells, DiscoveRx beta-arrestin luminescence, antagonist mode; stronger effect = lower value
In short: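 Cells plated overnight at 1500 cells/well, then exposed to library compounds with dopamine controls for 90 minutes at 37 degrees C. DiscoveRx reagent added for 30–60 minutes at room temperature; luminescence read, quantitative HTS format.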
% is set by controls: 0 for no effect and ±100 for the full control effect.

Structure (SMILES)	max response, negative = inhibition
CCC(=O)N1CCN(c2ccccc2NC(=S)NC(=O)c2ccco2)CC1	inconclusive: -36.9%
S=C(N/N=C/c1ccc2ncccc2c1)Nc1ccccc1	inactive: -7.23%
COc1cc(CNc2ccc(N3CCCC3)cc2)cc(Cl)c1OC	inconclusive: -45.7%
O=c1c2cc(N3CCOCC3)ccc2[nH]c(=S)n1Cc1ccccn1	inconclusive: -42.2%
O=C(CN1CCOCC1)Nc1ccc(-c2nc3ccccc3[nH]2)cc1	inactive: -15.4%
CCOC(=O)C1=C(C)N=C2SC(C)C(=O)N2C1c1ccc(C(=O)OC)cc1 (configuration not stated)	inconclusive: -35.7%
Cc1nn(Cc2ccccc2)c(N)c1C#N	inconclusive: -30.8%
CCCCn1nnnc1C(c1cc2ccccc2o1)N1CCN(c2ncccc2C#N)CC1 (configuration not stated)	inactive: 19.9%
O=c1[nH][nH]c(=O)c2c1[nH]c(=S)n2Cc1ccccc1	inconclusive: -32.9%
COc1ccc(OC)c(NC(=O)Nc2ccc(Cl)cc2)c1	inconclusive: -40.5%
COc1cccc(NC(=O)CSc2nc3c(sc4ccccc43)c(=O)n2CCCN2CCCC2)c1	inconclusive: -38.2%
CCc1nc2c(OCCC3CCCCC3)cccn2c1N(C)C(=O)c1ccccc1F	active: -57.4%
Clc1ccc2scc(CN3CCCCC3)c2c1	active: -87.7%
Nc1nc(Nc2cccc(C(F)(F)F)c2)nc(C(F)(F)F)n1	inconclusive: -47.4%
CCOc1ccc(CN(Cc2ccco2)S(=O)(=O)c2ccc(-n3cnnn3)c(OC)c2)cc1	inconclusive: -32.6%
O=C(CSc1cc([N+](=O)[O-])cc(S(=O)(=O)Cc2ccccc2)c1)NC1CC1	inactive: -14.7%
CC(=O)OC[C@@H]1CN(Cc2ccccc2)C[C@H](n2cnc3c(Nc4ccccc4)ncnc32)O1	inactive: -6.45%
O=C(C[C@H]1C/C=C\CC[C@@H](Cc2ccc(F)cc2)C(=O)OC[C@H]2CCCN2C1=O)NCCO	inconclusive: -32.8%
O=C(NCCN1CCOCC1)c1cc(-c2cccs2)on1	inconclusive: -42.3%
CC1CCN(CCCCOc2ccc(F)cc2)CC1	active: -59.2%
CCOC(=O)[C@@H]1[C@H]2COc3cc(OC)ccc3[C@H]2N2C(=O)N(c3ccc(C(F)(F)F)cc3)C(=O)[C@]12C	inactive: 17%
CCOc1ccc2nc(SCC(=O)N3CCCCCC3)c(C#N)cc2c1	inactive: 0%

Structure (SMILES)	max response, negative = inhibition
COc1ccc(N2CCN(c3ncnc4c3cnn4-c3ccc(C)cc3C)CC2)cc1	inactive: 8.51%
CCc1cccc(OCCN2CCCC2)c1	active: -59.6%
Cc1ccc(NC(=O)CN(C)C2CCCCC2)cc1Cl	inconclusive: -32.8%
Cc1nc2ccccc2nc(C)c1=NOCc1cccc(F)c1	inconclusive: -33.2%
Cc1c(NC2=CC(=O)CCC2)c(=O)n(-c2ccccc2)n1C	inconclusive: -36.3%
Cc1ccc(-c2nn(-c3cc(Cl)ccc3[N+](=O)[O-])c(=O)c3ccccc23)cc1	inconclusive: -30.3%
COc1ccc(C(=O)N/N=C/C(C)c2ccccc2)cc1OC (configuration not stated)	inconclusive: -34.9%
NS(=O)(=O)c1ccc(CCNC(=O)CNC(=O)c2ccc(Br)o2)cc1	inconclusive: -49.8%
Cc1c(NC(=O)CN2C(=O)c3ccccc3C2=O)c(=O)n(-c2ccccc2)n1C	inconclusive: -40.7%
Cc1cccc(OCC(=O)OC2CCN(C)CC2)c1	inconclusive: -32.7%
N#CCCN1CCN(C(=S)c2ccc(-c3ccc(Cl)cc3)o2)CC1	inconclusive: -37.8%
Cc1ccc(-c2n[nH]c(=S)n2/N=C/c2cccs2)cc1	inconclusive: -40.5%
CS/C(N)=N/N=C/c1ccc([N+](=O)[O-])cc1	active: -50.7%
O=S1(=O)CC(N2CCN(CCO)CC2)CN1C1CCCCC1 (configuration not stated)	inconclusive: -30.7%
CSc1ccc(/C=N/NC(=O)c2ccc(C)c(C)c2)cc1	inactive: -13.5%
O=C1N=c2ccc(Br)cc2=C1c1sc(=S)n(NS(=O)(=O)c2ccccc2)c1O	inconclusive: -34%
c1ccc(CN2CCN(Cc3cn4cccnc4n3)CC2)cc1	inactive: -13.8%
Cn1cnc2c1c(=O)n(Cc1cccc(Cl)c1)c(=O)n2C	inconclusive: -35.3%
Cc1ccsc1/C=N/NC(=O)CSCc1ccc(Cl)cc1	inactive: 0%
O=C(c1ccc(Cn2cc(Br)cn2)cc1)N1N=C(C(F)F)CC1(O)C(F)F (configuration not stated)	inactive: -7.55%
CC(=O)Nc1ccc(S(=O)(=O)NC2=C(N3CCN(Cc4ccccc4)CC3)C(=O)c3ccccc3C2=O)cc1	inconclusive: -32%
Cc1ccc(-n2nc(-c3ccco3)cc2C(=O)NCc2cccnc2)cc1	inconclusive: -49.1%

Structure (SMILES)	max response, negative = inhibition
CC1CCN(C(=O)CN2C(=O)C(=O)c3ccccc32)CC1	inconclusive: -39.9%
C[C@H](CO)N1C[C@H](C)[C@H](CN(C)S(=O)(=O)c2cn(C)cn2)Oc2ccc(NC(=O)Nc3ccc(C(F)(F)F)cc3)cc2CC1=O	inconclusive: -31%
Cc1c(CNC2CCC(C)CC2)c(C(=O)O)c(C)n1Cc1ccccc1 (configuration not stated)	inconclusive: -45.8%
O=C(O)c1cc(NS(=O)(=O)c2ccc(N3CCCCC3)c([N+](=O)[O-])c2)cc(C(=O)O)c1	inconclusive: -40%
CC(=O)Nc1ccc(S(=O)(=O)N2CCN(C(=O)c3ncoc3-c3cccc(F)c3)CC2)cc1	inconclusive: -31.8%
Cc1cc(C)c(S(=O)(=O)NCCC2CCCN2C)c(C)c1 (configuration not stated)	inactive: -11.9%
Oc1ccc(Br)cc1-c1nc2cnccn2c1NC1CCCC1	inconclusive: -36.5%
CCCS(=O)(=O)c1nnnn1-c1cccc(OC)c1	inconclusive: -42.6%
Cn1cnnc1Sc1cc(N2CCN(S(=O)(=O)c3ccc(Cl)c(Cl)c3)CC2)ccc1[N+](=O)[O-]	inconclusive: -35.4%
O=C(/C=C/c1ccco1)N1CCN(C/C=C/c2ccccc2)CC1	inconclusive: -46.7%
COc1ccc(N(C)C(=S)Nc2ccc3nc(C)c(C)nc3c2)cc1	inactive: -17.9%
c1ccc2c(c1)oc1c(N3CCN(Cc4ccc5c(c4)OCO5)CC3)ncnc12	inconclusive: -48.4%
O=C1NC[C@H](c2ccccc2)OC(=O)[C@@H](Cc2ccc(F)cc2)C/C=C\C[C@H]1CC(=O)N(CCO)Cc1ccccc1	inactive: 0%
Cc1ccc(CN2CCN(Cc3cnc(C)s3)CC2CCO)o1 (configuration not stated)	inactive: -11%
CC(C)S(=O)(=O)CC(=O)c1ccc(Cl)cc1	inconclusive: -35.9%
COc1ccc2c(c1)O[C@H](c1ccc3c(c1)OCO3)[C@@H](O)C2=O	inactive: -14.5%
O=C(O)CCCNC(=O)/C(=C\c1ccc(Cl)cc1)NC(=O)c1ccccc1Br	inconclusive: -35%
CCN(CC)CCN(C(=O)c1ccc2c(c1)CCCC2)c1nc2ccc(OC)cc2s1	inconclusive: -31.1%
O=C(Cn1ncn2c(cc3ccccc32)c1=O)NCCc1cccs1	inactive: -5.4%
O=[N+]([O-])c1cc(C(F)(F)F)ccc1Sc1ccc2ccccc2n1	inconclusive: -30.9%
CSc1cccc(NC(=S)N(CCCN2CCCC(C)C2)Cc2cccs2)c1 (configuration not stated)	active: -104%
CC(=O)N(C1=C(Cl)C(=O)c2ccccc2C1=O)c1ccc(C(=O)O)cc1	inactive: -17.6%

Structure (SMILES)	max response, negative = inhibition
COc1ccccc1NC(=O)CCN1CCN(c2ccc(Cl)cc2)CC1	active: -52.9%
O=C(COc1ccc(Cl)cc1)NCCN1CCCC1	inconclusive: -38.7%
CSc1cccc(NC(=O)CSc2ccc(Cl)cc2)c1	inconclusive: -36.1%
CN1CCN(c2nc(-c3ccncc3)nc3ccccc23)CC1	inactive: 74.9%
O=C(NC(c1ccc(-c2ccccc2)cc1)c1cnccn1)C1CCN(Cc2ccc3c(c2)OCO3)CC1 (configuration not stated)	active: -65.8%
Cc1ccc(F)cc1NC(=S)NCCc1ccccc1	inactive: -19.2%
N=c1c2c(-c3ccccc3)c(-c3ccccc3)oc2ncn1CCCN1CCOCC1	inconclusive: -47.9%
CN1c2ccccc2C(C)(C)C12C=Nc1c(cc(N3CCOCC3)c3ccccc13)O2 (configuration not stated)	inconclusive: -31.9%
COc1ccc([C@H]2CC(=O)C=C(/C=C/c3ccc(C(F)(F)F)cc3)C2)cc1	inconclusive: -48.1%
COc1ccc(/C=C/C(=O)O)cc1S(=O)(=O)NC1CCS(=O)(=O)C1 (configuration not stated)	inactive: 11%
CC(C)(O)C#Cc1ccc(CN2CCN(C3CCCC3)C(CCO)C2)cc1 (configuration not stated)	inconclusive: -36.6%
Cc1nn(-c2ccccc2)c(C)c1/C=N/n1c(-c2ccncc2)n[nH]c1=S	active: -52.3%
COc1ccc(F)cc1S(=O)(=O)n1nnc2ccccc21	inconclusive: -40.8%
O=C(CCc1nc2ccccc2c(=O)[nH]1)NCc1ccccn1	inactive: -10%
CN(C)C(CNC(=O)CNC(=O)c1ccc(Br)cc1)c1ccccc1 (configuration not stated)	inconclusive: -43.6%
COCCn1c(-c2ccc(OC)cc2)nc2oc3cc(OC)ccc3c(=O)c2c1=O	inconclusive: -38.9%
CCOc1ccc2nc(C)cc(Nc3cccc([N+](=O)[O-])c3)c2c1	inactive: -25.2%
COC(=O)c1c(NC(=O)C2COc3ccccc3O2)sc2c1CCN(Cc1ccccc1)C2 (configuration not stated)	inactive: -4.96%
O=C(Nc1ccc2nc3n(c(=O)c2c1)CCCCC3)c1c(F)ccc([N+](=O)[O-])c1F	active: -59.2%
O=C(COC(=O)c1ccco1)Nc1cc(S(=O)(=O)N2CCCCC2)ccc1Cl	inconclusive: -47.5%
Cc1cc(NC(=O)CSc2nc3c([nH]c4ccccc43)c(=O)n2-c2cccc(C(F)(F)F)c2)no1	inconclusive: -34.8%

Single values from above.
CCOc1ccc2nc(SCC(=O)N3CCCCCC3)c(C#N)cc2c1 | max response, negative = inhibition: inactive: 0%
O=C(c1ccc(Cn2cc(Br)cn2)cc1)N1N=C(C(F)F)CC1(O)C(F)F (configuration not stated) | max response, negative = inhibition: inactive: -7.55%

Exported with bars between the fields: two of the compounds above
Structure (SMILES) | max response, negative = inhibition
N=c1c2c(-c3ccccc3)c(-c3ccccc3)oc2ncn1CCCN1CCOCC1 | inconclusive: -47.9%
CN1c2ccccc2C(C)(C)C12C=Nc1c(cc(N3CCOCC3)c3ccccc13)O2 (configuration not stated) | inconclusive: -31.9%
